# Data as given in US12637435B2, “Nitrogen-containing heterocyclic compound or salt thereof, use thereof, and intermediate thereof” (FUJIFILM Corporation, priority 2020, dated 2026).
# The chains behind the UniProt entries cited, without tags or fusion partners. Residues count along the entry.
# UniProt Q02127, 31-395 limits assumed: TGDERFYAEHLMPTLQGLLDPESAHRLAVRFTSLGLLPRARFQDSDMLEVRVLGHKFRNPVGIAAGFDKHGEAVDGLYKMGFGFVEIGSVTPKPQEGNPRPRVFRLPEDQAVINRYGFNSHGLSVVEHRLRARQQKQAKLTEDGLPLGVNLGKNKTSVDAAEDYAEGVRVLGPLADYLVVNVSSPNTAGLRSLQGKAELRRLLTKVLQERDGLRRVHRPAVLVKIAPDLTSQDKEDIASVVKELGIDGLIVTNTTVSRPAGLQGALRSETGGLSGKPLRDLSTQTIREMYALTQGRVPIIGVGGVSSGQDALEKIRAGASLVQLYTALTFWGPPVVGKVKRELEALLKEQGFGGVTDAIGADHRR
# The structures given here were assigned with low confidence; some may be wrong.
# Key:
# [1] = system: human myeloid leukemia cell line HL60; experiment: Cell growth test, HL60 (CellTiter-Glo); settings: read-out: Cell growth inhibitory effect (GI50); HL60 cells, 3 days, CellTiter-Glo luminescence
# Experimental: The cell growth test was carried out using the human myeloid leukemia cell line HL60 (available from ATCC, CRL-240). As a culture medium of HL60 cells, RPMI 1640 (available from FUJIFILM Wako Pure Chemical Corporation, 189-02025) supplemented with 10% fetal bovine serum (available from Thermo Fisher Scientific, Inc., 10437-028), and 1% penicillin-streptomycin (10,000 U/mL, available from Thermo Fisher Scientific, Inc., 15140-122) was used. HL60 cells were seeded on a 384-well plate (available from Corning Inc., 4588) at a cell density of 1×10^3 cells/20 μL/well. After culturing overnight, 5 μL of the test compound having a predetermined concentration was added, and 3 days later, 25 μL of CellTiter-Glo (registered trademark) Luminescent Cell Viability Assay (available from Promega Corporation, G7573) was added, and then the amount of luminescence was measured using an EnVision plate reader (available from PerkinElmer, Inc.). Since the amount of luminescence is proportional to the intracellular concentration of adenosine triphosphate (ATP), the amount of luminescence was used as an indicator of the number of viable cells. The growth inhibitory concentration for each test compound concentration was calculated by the following expression. […]
# [2] = molecular target: recombinant human DHODH (Homo sapiens, UniProt Q02127); experiment: DHODH enzyme reaction inhibition test (DCIP-coupled assay); settings: read-out: Enzyme reaction inhibitory effect (IC50); recombinant human DHODH 0.175 μg/mL, DCIP absorbance 600 nm, 50 minutes, pH 8.0
# Experimental: The DHODH enzyme assay was carried out with reference to “Benjamin Bader, Wolfgang Knecht, Markus Fries, and Monika Loffler, Expression, Purification, and Characterization of Histidine-Tagged Rat and Human Flavoenzyme Dihydroorotate Dehydrogenase, Protein Expression and Purification, 1998, 13, 414-422.”
# The DHODH activity was evaluated using an enzyme assay system that is coupled with an assay in which a blue coloring agent 2,6-dichlorophenolindophenol (DCIP, available from MP Biomedicals, LLC, MP150118) is quenched. […] The enzyme activity was assessed by measuring the decrease in DCIP absorbance (600 nm) for 50 minutes using an EnVision plate-reading spectrophotometer (available from PerkinElmer, Inc.). […]
smiles,measurement,setting,value
O=C(NO)c1nc(C2CC2)cnc1Nc1cccc(C2=CCOCC2)c1OCC(F)(F)F,GI50,[1],< 100 nM
same,IC50,[2],10 to 100 nM
